Experimental data: PubChem BioAssay AID743448 (Peter MacCallum Cancer Centre, 2014)

Assay: 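Find knock-downs giving vorinostat-specific cell death in several colon cancer lines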 (follow-up of hits)
Cell system: four human colon cancer cell lines: HCT116-VR (vorinostat-resistant HCT116 derivative), SW480, SW620 and LIM1215
Reagent: siRNA pool against human genes, 40 nM siRNA pool
Duration: drug added two days after transfection, read one day later
Treatment: vorinostat 2.5 µM on one half of each plate, etoposide 5 µM on the other half
Cell line and drug panel: vorinostat-resistant HCT116 cells with etoposide
Detection: 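Caspase 3/7 activity by luminescence and live-cell viability by fluorescence, each given as a ratio to mock-transfected wells and as a robust z-score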
Direction: caspase ratio to mock: higher = more caspase activity than mock; viability ratio to mock: higher = more live cells than mock
Call rule: 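a row is a hit if caspase relative to mock is 1.6 or above or viability relative to mock is 0.75 or below; wells dying heavily without drug are not called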
Meaning of the calls: active = caspase or viability hit in this panel; inactive = no change, or unhealthy well
This is a random part of the 106 reagents, in one setting of the screen. 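Calls are per line and drug panel including etoposide, not vorinostat-specific; gene picks needed hits in two or more extra lines with vorinostat versus etoposide.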 Further read-outs or replicates are left out here.

What did the screen give for LCE2A (late cornified envelope 2A)?
caspase ratio to mock: 1.81; viability ratio to mock: 1.08; Outcome: active

For POLR2J (RNA polymerase II subunit J), what was measured?
caspase ratio to mock: 3.52; viability ratio to mock: 0.92; Outcome: active

With CCNK (cyclin K), what does the deposit list?
caspase ratio to mock: 1.15; viability ratio to mock: 0.86; Outcome: inactive

How did the screen score DDX19B (DEAD-box helicase 19B)?
caspase ratio to mock: 4.8; viability ratio to mock: 0.81; Outcome: active

Which result is listed for C1orf210 (chromosome 1 open reading frame 210)?
caspase ratio to mock: 3.68; viability ratio to mock: 1.01; Outcome: active

How did the screen score TBC1D20 (TBC1 domain family member 20)?
caspase ratio to mock: 1.92; viability ratio to mock: 1.06; Outcome: active

How did the screen score EIF3L (eukaryotic translation initiation factor 3 subunit L)?
caspase ratio to mock: 1.5; viability ratio to mock: 0.96; Outcome: inactive

Which result is listed for RGS18 (regulator of G protein signaling 18)?
caspase ratio to mock: 1.29; viability ratio to mock: 1.25; Outcome: inactive

With NUP62 (nucleoporin 62), how do the results read?
caspase ratio to mock: 2.51; viability ratio to mock: 0.8; Outcome: active

With IQSEC1 (IQ motif and Sec7 domain ArfGEF 1), how do the results read?
caspase ratio to mock: 2.38; viability ratio to mock: 0.84; Outcome: active

What did the screen give for POLR2D (RNA polymerase II subunit D)?
caspase ratio to mock: 3.34; viability ratio to mock: 0.83; Outcome: active

With AMDHD2 (amidohydrolase domain containing 2), how do the results read?
caspase ratio to mock: 1.91; viability ratio to mock: 0.92; Outcome: active

For TDP2 (tyrosyl-DNA phosphodiesterase 2), what does the deposit list?
caspase ratio to mock: 1.97; viability ratio to mock: 1.04; Outcome: active

For CBX7 (chromobox 7), what was measured?
caspase ratio to mock: 1.94; viability ratio to mock: 0.89; Outcome: active

For IRX2-DT (IRX2 divergent transcript), what does the deposit list?
caspase ratio to mock: 1.49; viability ratio to mock: 0.95; Outcome: inactive

With EIF2S1 (eukaryotic translation initiation factor 2 subunit alpha), what does the deposit list?
caspase ratio to mock: 0.93; viability ratio to mock: 0.57; Outcome: active

For RWDD2A (RWD domain containing 2A), what was measured?
caspase ratio to mock: 1.68; viability ratio to mock: 1.12; Outcome: active

For MSANTD1 (Myb/SANT DNA binding domain containing 1), how do the results read?
caspase ratio to mock: 2.21; viability ratio to mock: 0.82; Outcome: active

Which result is listed for POLR2G (RNA polymerase II subunit G)?
caspase ratio to mock: 3.84; viability ratio to mock: 0.82; Outcome: active

For MED28 (mediator complex subunit 28), what was measured?
caspase ratio to mock: 3.72; viability ratio to mock: 1; Outcome: active

Which result is listed for NUP93 (nucleoporin 93)?
caspase ratio to mock: 2.25; viability ratio to mock: 0.66; Outcome: active

For HSPA6 (heat shock protein family A (Hsp70) member 6), what was measured?
caspase ratio to mock: 1; viability ratio to mock: 1.03; Outcome: inactive

How did the screen score THOC5 (THO complex subunit 5)?
caspase ratio to mock: 1.93; viability ratio to mock: 0.84; Outcome: active

With NUP54 (nucleoporin 54), what does the deposit list?
caspase ratio to mock: 1.66; viability ratio to mock: 0.76; Outcome: active

What is on record for SLU7 (spliceosome associated SLU7)?
caspase ratio to mock: 1.47; viability ratio to mock: 0.71; Outcome: active

What did the screen give for H1-5 (H1.5 linker histone, cluster member)?
caspase ratio to mock: 2.06; viability ratio to mock: 0.9; Outcome: active

What did the screen give for NUP133 (nucleoporin 133)?
caspase ratio to mock: 2.98; viability ratio to mock: 0.74; Outcome: active

With GPER1 (G protein-coupled estrogen receptor 1), what does the deposit list?
caspase ratio to mock: 2.62; viability ratio to mock: 0.9; Outcome: active

Taken from above:
Entry of IRX2-DT (IRX2 divergent transcript) under “caspase ratio to mock”: 1.49
Value of HSPA6 (heat shock protein family A (Hsp70) member 6) under “caspase ratio to mock”: 1
For “Outcome”, GPER1 (G protein-coupled estrogen receptor 1) reads active
IQSEC1 (IQ motif and Sec7 domain ArfGEF 1), Outcome: active
